Experimental data taken from doi:10.1101/2024.09.25.614892 (bioRxiv, 2024).
These are yes or no findings as the source states them, for the method shown. Some results given as binding are weak or reduced against the parent protein; the word gives no strength. For part of these data: Sequences can lack the tags named with a protein.

Protein sequences, listed by entry. Tags and fused reporters are not part of them.
UniProt P06179: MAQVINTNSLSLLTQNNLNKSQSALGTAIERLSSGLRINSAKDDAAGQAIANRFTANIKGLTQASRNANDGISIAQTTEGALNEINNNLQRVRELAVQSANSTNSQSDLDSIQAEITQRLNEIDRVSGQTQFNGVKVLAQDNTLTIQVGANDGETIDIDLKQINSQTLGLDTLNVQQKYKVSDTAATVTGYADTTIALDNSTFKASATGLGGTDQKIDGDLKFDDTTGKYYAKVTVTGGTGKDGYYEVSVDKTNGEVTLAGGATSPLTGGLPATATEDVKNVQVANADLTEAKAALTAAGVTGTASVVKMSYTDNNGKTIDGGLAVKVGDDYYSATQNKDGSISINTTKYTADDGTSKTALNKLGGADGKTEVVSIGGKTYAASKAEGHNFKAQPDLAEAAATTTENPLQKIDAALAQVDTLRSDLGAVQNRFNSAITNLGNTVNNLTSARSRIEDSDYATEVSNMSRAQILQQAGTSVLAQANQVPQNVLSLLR
UniProt P0A1J5: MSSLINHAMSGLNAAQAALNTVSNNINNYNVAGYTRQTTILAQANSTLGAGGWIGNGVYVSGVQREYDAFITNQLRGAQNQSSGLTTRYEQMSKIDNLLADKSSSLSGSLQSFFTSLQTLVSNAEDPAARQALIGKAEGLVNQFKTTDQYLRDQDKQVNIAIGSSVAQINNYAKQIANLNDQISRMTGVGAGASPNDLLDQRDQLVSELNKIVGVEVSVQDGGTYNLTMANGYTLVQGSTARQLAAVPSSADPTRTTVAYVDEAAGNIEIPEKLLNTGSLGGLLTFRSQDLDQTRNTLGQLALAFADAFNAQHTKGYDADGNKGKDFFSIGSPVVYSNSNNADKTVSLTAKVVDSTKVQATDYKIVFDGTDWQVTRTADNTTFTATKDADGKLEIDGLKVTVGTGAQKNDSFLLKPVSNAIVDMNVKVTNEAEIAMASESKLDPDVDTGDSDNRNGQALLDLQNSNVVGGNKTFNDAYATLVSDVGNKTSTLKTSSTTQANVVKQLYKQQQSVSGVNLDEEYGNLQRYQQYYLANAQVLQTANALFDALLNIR

T1: FlgL (hook-filament junction protein) of Campylobacter jejuni (Campylobacter jejuni)
T1 sequence: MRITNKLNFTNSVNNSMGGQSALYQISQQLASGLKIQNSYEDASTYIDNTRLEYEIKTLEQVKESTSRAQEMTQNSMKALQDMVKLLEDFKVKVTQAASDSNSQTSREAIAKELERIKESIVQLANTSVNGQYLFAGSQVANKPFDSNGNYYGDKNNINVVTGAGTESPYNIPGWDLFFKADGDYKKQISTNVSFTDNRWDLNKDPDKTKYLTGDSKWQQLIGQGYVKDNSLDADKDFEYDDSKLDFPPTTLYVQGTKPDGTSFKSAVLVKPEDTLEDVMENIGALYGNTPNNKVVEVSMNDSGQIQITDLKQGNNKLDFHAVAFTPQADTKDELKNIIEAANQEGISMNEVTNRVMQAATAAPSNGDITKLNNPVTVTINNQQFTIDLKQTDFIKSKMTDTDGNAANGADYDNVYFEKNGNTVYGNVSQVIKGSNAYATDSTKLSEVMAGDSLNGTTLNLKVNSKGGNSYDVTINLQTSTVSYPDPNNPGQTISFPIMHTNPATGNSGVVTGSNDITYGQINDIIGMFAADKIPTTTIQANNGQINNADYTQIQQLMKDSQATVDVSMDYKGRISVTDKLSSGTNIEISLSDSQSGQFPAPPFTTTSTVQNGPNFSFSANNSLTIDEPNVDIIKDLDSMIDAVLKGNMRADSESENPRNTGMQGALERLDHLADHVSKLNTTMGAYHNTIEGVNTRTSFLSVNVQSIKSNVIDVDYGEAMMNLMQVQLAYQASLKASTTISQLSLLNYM

B1: FliD (flagellar filament cap protein) of Campylobacter jejuni (natural protein, UniProt Q9PHW6 1-642, looked up)
chain: MAFGSLSSLGFGSGVLTQDTIDKLKEAEQKARIDPYTKKIEENTTKQKDLTEIKTKLLSFQTAVSSLADATVFAKRKVVGSISDNPPASLTVNSGVALQSMNINVTQLAQKDVYQSKGLANDGGFVNAQLNGTADLTFFSNGKEYTVTVDKNTTYRDLADKINEASGGEIVAKIVNTGEKGTPYRLTLTSKETGEDSAISFYAGKKDSNGKYQKDINAEKIFDDLGWGLDVSASIDPDKDKKGYGIKDASLHIQTAQNAEFTLDGIKMFRSSNTVTDLGVGMTLTLNKTGEINFDVQQDFEGVTKAMQDLVDAYNDLVTNLNAATDYNSETGTKGTLQGISEVNSIRSSILADLFDSQVVDGTTEDANGNKVNTKVMLSMQDFGLSLNDAGTLSFDSSKFEQKVKEDPDSTESFFSNITKYEDINHTGEVIKTGSLSKYLNSNGGNTNGLEFKPGDFTIVFNNQTYDLSKNSDGTNFKLTGKTEEELLQNLANHINSKGIEGLKVKVESYNQNNVTGFRLNFSGDGSSDFSIKGDANILKELGLSDVNITSKPIEGKGIFSKLKATLQEMTGKDGSITKYDESLTNDIKSLNTSKDSTQAMIDTRYDTMANQWLQYESILNKLNQQLNTVTNMINAANNSNN
B2: FlgK (hook-filament junction protein) of Campylobacter jejuni (natural protein, UniProt Q0P8E9 1-608, looked up)
chain: MGIFGTLYTGVTGLKASEVQIATTGNNISNANATFYTRQRVVQTTNGYITTGGVQVGTGTAVESIVRLHDEYSYYKLKGASTQLEYTKYMASTLQEIAQRFPDLQNTGILQDLENYNKAWNDFASNPNENATKIALVKASQTLTESVNNTFATLDKIQKKVNDDIKNTVDEINRIGEEIATINKQIYGQEALPTEHANELRDRRDELELTLSKLVSAVASKNEINQDNRLDTTITDPGHQYNLSIEGFSIVDGINFHPLKLDYDDKNKSYSIYYETPDEKVRDLTAKISGGQLGAQLDLRGRNYSKSEGKYEDGIIQGYMDSLDTFAKTMINETNNLYASSAKSSVTSDYLSGLKGDIPLVNYDRTIQPGSFDIVIYDDKGDKKLTKTITIDVNTTMNDIMRQINANTDDNDNKNSNDDVDDHINASFSYDAKTGDGLFQINAKSGFKVAIEDKGTNFAGAFSIGGFFSGTDASDMKVKDSILNDPSTVRASSNGVDSGNDMANKIIQLQYKKVNFYNEDGTIDNLTMEEYYRKLTGKIASDGENNNVVNSSNETLYNSVYSEYQSKSGVNTNEELAALIQYQSSYGAAAKIVSTVDQMLDTLLGLKS

Assays:
[1] = molecular target: FliC (flagellin) of Salmonella enterica (Salmonella enterica serovar Typhimurium LT2) (UniProt P06179); assay: cryo-EM structure
[2] = molecular target: T1, FlgL (hook-filament junction protein) of Campylobacter jejuni (Campylobacter jejuni); assay: cryo-EM structure

Molecule | binding [1] | binding [2]
FlgK (hook-filament junction protein) of Salmonella enterica (from UniProt P0A1J5 1-553) | no binding | 
B1 |  | binds
B2 |  | binds
